Assay results from PMC9681113.

How the values were obtained:
Assay in all cases: affinity purification with mass spectrometry; GFP pulldown with GFP Tag Immunomagnetic Beads from lysates of HEK-293 Flp-In T-REx cells expressing EGFP, EGFP-MAB21L1 or mutant EGFP-MAB21L1 after 12 hrs of 1 μg/ml tetracycline; three biological replicates; MaxQuant
[1] = target: T1, GFP-tagged MAB21L1 Arg51Gln (human) (UniProt Q13394)
T1 sequence: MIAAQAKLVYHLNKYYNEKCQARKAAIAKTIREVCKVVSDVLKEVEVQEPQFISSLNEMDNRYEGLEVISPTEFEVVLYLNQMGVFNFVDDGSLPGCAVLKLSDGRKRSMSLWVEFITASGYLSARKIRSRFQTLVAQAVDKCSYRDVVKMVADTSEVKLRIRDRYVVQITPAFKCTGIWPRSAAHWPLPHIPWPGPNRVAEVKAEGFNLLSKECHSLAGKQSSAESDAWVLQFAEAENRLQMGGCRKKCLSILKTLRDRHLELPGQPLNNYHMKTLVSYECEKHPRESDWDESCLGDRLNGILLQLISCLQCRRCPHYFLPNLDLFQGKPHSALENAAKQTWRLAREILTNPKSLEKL

[2] = target: T2, GFP-tagged MAB21L1 Arg51Leu (human) (UniProt Q13394)
T2 sequence: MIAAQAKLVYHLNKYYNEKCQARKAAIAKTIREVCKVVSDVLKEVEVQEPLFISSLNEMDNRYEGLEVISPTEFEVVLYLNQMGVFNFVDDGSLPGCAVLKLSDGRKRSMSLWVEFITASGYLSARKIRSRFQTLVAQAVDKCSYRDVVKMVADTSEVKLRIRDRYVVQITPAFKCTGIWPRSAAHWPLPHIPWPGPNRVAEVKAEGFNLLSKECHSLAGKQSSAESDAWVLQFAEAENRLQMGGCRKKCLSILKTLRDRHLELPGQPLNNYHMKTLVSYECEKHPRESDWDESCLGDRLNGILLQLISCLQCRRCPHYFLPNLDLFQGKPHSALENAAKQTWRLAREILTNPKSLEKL

[3] = target: T3, GFP-tagged wild-type MAB21L1 (human) (UniProt Q13394)
T3 sequence: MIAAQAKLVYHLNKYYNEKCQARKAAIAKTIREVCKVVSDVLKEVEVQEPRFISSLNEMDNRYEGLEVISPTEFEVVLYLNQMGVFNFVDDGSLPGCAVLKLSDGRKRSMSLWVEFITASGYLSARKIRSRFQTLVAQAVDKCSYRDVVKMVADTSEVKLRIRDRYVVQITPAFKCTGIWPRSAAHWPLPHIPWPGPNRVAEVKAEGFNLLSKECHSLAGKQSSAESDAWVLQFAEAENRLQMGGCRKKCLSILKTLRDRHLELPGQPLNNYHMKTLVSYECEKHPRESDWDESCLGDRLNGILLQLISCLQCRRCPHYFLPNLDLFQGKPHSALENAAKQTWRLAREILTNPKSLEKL

Measured: binding

B1: MEIS1 (protein, UniProt O00470 1-390)
chain: MAQRYDDLPHYGGMDGVGIPSTMYGDPHAARSMQPVHHLNHGPPLHSHQYPHTAHTNAMAPSMGSSVNDALKRDKDAIYGHPLFPLLALIFEKCELATCTPREPGVAGGDVCSSESFNEDIAVFAKQIRAEKPLFSSNPELDNLMIQAIQVLRFHLLELEKVHELCDNFCHRYISCLKGKMPIDLVIDDREGGSKSDSEDITRSANLTDQPSWNRDHDDTASTRSGGTPGPSSGGHTSHSGDNSSEQGDGLDNSVASPSTGDDDDPDKDKKRHKKRGIFPKVATNIMRAWLFQHLTHPYPSEEQKKQLAQDTGLTILQVNNWFINARRRIVQPMIDQSNRAVSQGTPYNPDGQPMGGFVMDGQQHMGIRAPGPMSGMGMNMGMEGQWHYM
binds: [1] | [2] | [3]

B2: GGCX (protein, UniProt P38435 1-758)
chain: MAVSAGSARTSPSSDKVQKDKAELISGPRQDSRIGKLLGFEWTDLSSWRRLVTLLNRPTDPASLAVFRFLFGFLMVLDIPQERGLSSLDRKYLDGLDVCRFPLLDALRPLPLDWMYLVYTIMFLGALGMMLGLCYRISCVLFLLPYWYVFLLDKTSWNNHSYLYGLLAFQLTFMDANHYWSVDGLLNAHRRNAHVPLWNYAVLRGQIFIVYFIAGVKKLDADWVEGYSMEYLSRHWLFSPFKLLLSEELTSLLVVHWGGLLLDLSAGFLLFFDVSRSIGLFFVSYFHCMNSQLFSIGMFSYVMLASSPLFCSPEWPRKLVSYCPRRLQQLLPLKAAPQPSVSCVYKRSRGKSGQKPGLRHQLGAAFTLLYLLEQLFLPYSHFLTQGYNNWTNGLYGYSWDMMVHSRSHQHVKITYRDGRTGELGYLNPGVFTQSRRWKDHADMLKQYATCLSRLLPKYNVTEPQIYFDIWVSINDRFQQRIFDPRVDIVQAAWSPFQRTSWVQPLLMDLSPWRAKLQEIKSSLDNHTEVVFIADFPGLHLENFVSEDLGNTSIQLLQGEVTVELVAEQKNQTLREGEKMQLPAGEYHKVYTTSPSPSCYMYVYVNTTELALEQDLAYLQELKEKVENGSETGPLPPELQPLLEGEVKGGPEPTPLVQTFLRRQQRLQEIERRRNTPFHERFFRFLLRKLYVFRRSFLMTCISLRNLILGRPSLEQLAQEVTYANLRPFEAVGELNPSNTDSSHSNPPESNPDPVHSEF
binds: [1] | [2] | [3]

B3: SUGT1 (protein, UniProt Q9Y2Z0 1-365)
chain: MAAAAAGTATSQRFFQSFSDALIDEDPQAALEELTKALEQKPDDAQYYCQRAYCHILLGNYCVAVADAKKSLELNPNNSTAMLRKGICEYHEKNYAAALETFTEGQKLDIETGFHRVGQAGLQLLTSSDPPALDSQSAGITGADANFSVWIKRCQEAQNGSESEVWTHQSKIKYDWYQTESQVVITLMIKNVQKNDVNVEFSEKELSALVKLPSGEDYNLKLELLHPIIPEQSTFKVLSTKIEIKLKKPEAVRWEKLEGQGDVPTPKQFVADVKNLYPSSSPYTRNWDKLVGEIKEEEKNEKLEGDAALNRLFQQIYSDGSDEVKRAMNKSFMESGGTVLSTNWSDVGKRKVEINPPDDMEWKKY
binds: [1] | [2] | [3]

B4: PPP5C (protein, UniProt P53041 1-499)
chain: MAMAEGERTECAEPPRDEPPADGALKRAEELKTQANDYFKAKDYENAIKFYSQAIELNPSNAIYYGNRSLAYLRTECYGYALGDATRAIELDKKYIKGYYRRAASNMALGKFRAALRDYETVVKVKPHDKDAKMKYQECNKIVKQKAFERAIAGDEHKRSVVDSLDIESMTIEDEYSGPKLEDGKVTISFMKELMQWYKDQKKLHRKCAYQILVQVKEVLSKLSTLVETTLKETEKITVCGDTHGQFYDLLNIFELNGLPSETNPYIFNGDFVDRGSFSVEVILTLFGFKLLYPDHFHLLRGNHETDNMNQIYGFEGEVKAKYTAQMYELFSEVFEWLPLAQCINGKVLIMHGGLFSEDGVTLDDIRKIERNRQPPDSGPMCDLLWSDPQPQNGRSISKRGVSCQFGPDVTKAFLEENNLDYIIRSHEVKAEGYEVAHGGRCVTVFSAPNYCDQMGNKASYIHLQGSDLRPQFHQFTAVPHPNVKPMAYANTLLQLGMM
binds: [1] | [2] | [3]

B5: ZSCAN18 (protein, UniProt Q8TBC5 1-510)
chain: MLPLEKAFASPRSSPAPPDLPTPGSAAGVQQEEPETIPERTPADLEFSRLRFREFVYQEAAGPHQTLARLHELCRQWLMPEARSKEQMLELLVLEQFLGILPDKVRPWVVAQYPESCKKAASLVEGLADVLEEPGMLLGSPAGSSSILSDGVYERHMDPLLLPGELASPSQALGAGEIPAPSETPWLSPDPLFLEQRRVREAKTEEDGPANTEQKLKSFPEDPQHLGEWGHLDPAEENLKSYRKLLLWGYQLSQPDAASRLDTEELRLVERDPQGSSLPEGGRRQESAGCACEEAAPAGVLPELPTEAPPGDALADPPSGTTEEEEEQPGKAPDPQDPQDAESDSATGSQRQSVIQQPAPDRGTAKLGTKRPHPEDGDGQSLEGVSSSGDSAGLEAGQGPGADEPGLSRGKPYACGECGEAFAWLSHLMEHHSSHGGRKRYACQGCWKTFHFSLALAEHQKTHEKEKSYALGGARGPQPSTREAQAGARAGGPPESVEGEAPPAPPEAQR
binds: [1] | [2] | [3]

B6: GARS (protein, UniProt P41250 37-739)
chain: SAASCPPISLPAAASRSSMDGAGAEEVLAPLRLAVRQQGDLVRKLKEDKAPQVDVDKAVAELKARKRVLEAKELALQPKDDIVDRAKMEDTLKRRFFYDQAFAIYGGVSGLYDFGPVGCALKNNIIQTWRQHFIQEEQILEIDCTMLTPEPVLKTSGHVDKFADFMVKDVKNGECFRADHLLKAHLQKLMSDKKCSVEKKSEMESVLAQLDNYGQQELADLFVNYNVKSPITGNDLSPPVSFNLMFKTFIGPGGNMPGYLRPETAQGIFLNFKRLLEFNQGKLPFAAAQIGNSFRNEISPRSGLIRVREFTMAEIEHFVDPSEKDHPKFQNVADLHLYLYSAKAQVSGQSARKMRLGDAVEQGVINNTVLGYFIGRIYLYLTKVGISPDKLRFRQHMENEMAHYACDCWDAESKTSYGWIEIVGCADRSCYDLSCHARATKVPLVAEKPLKEPKTVNVVQFEPSKGAIGKAYKKDAKLVMEYLAICDECYITEMEMLLNEKGEFTIETEGKTFQLTKDMINVKRFQKTLYVEEVVPNVIEPSFGLGRIMYTVFEHTFHVREGDEQRTFFSFPAVVAPFKCSVLPLSQNQEFMPFVKELSEALTRHGVSHKVDDSSGSIGRRYARTDEIGVAFGVTIDFDTVNKTPHTATLRDRDSMRQIRAEISELPSIVQDLANGNITWADVEARYPLFEGQETGKKETIEE
binds: [1] | [2] | [3]

B7: PRPF4 (protein, UniProt O43172 1-522)
chain: MASSRASSTQATKTKAPDDLVAPVVKKPHIYYGSLEEKERERLAKGESGILGKDGLKAGIEAGNINITSGEVFEIEEHISERQAEVLAEFERRKRARQINVSTDDSEVKACLRALGEPITLFGEGPAERRERLRNILSVVGTDALKKTKKDDEKSKKSKEEYQQTWYHEGPNSLKVARLWIANYSLPRAMKRLEEARLHKEIPETTRTSQMQELHKSLRSLNNFCSQIGDDRPISYCHFSPNSKMLATACWSGLCKLWSVPDCNLLHTLRGHNTNVGAIVFHPKSTVSLDPKDVNLASCAADGSVKLWSLDSDEPVADIEGHTVRVARVMWHPSGRFLGTTCYDRSWRLWDLEAQEEILHQEGHSMGVYDIAFHQDGSLAGTGGLDAFGRVWDLRTGRCIMFLEGHLKEIYGINFSPNGYHIATGSGDNTCKVWDLRQRRCVYTIPAHQNLVTGVKFEPIHGNFLLTGAYDNTAKIWTHPGWSPLKTLAGHEGKVMGLDISSDGQLIATCSYDRTFKLWMAE
binds: [1] | [2] | [3]

These are yes or no findings as the source states them, for the method shown. Binding seen in cells or lysates may run through a third protein. Here binding means that the protein was enriched with, or labelled near, the bait; the list need not be complete. Tags and fused reporters may be left off the sequences shown.
